Data published in the supplement of paper PMC12067093, “Discovery and optimisation of a covalent ligand for TRIM25 and its application to targeted protein ubiquitination” (Chemical Science, 2025).
The other results are listed elsewhere or left out.

Chains of the proteins cited; added tags and fusions are not shown. Lines headed by an entry give the natural chain unless they say otherwise; changes in a name come on top.
UniProt Q8WW33: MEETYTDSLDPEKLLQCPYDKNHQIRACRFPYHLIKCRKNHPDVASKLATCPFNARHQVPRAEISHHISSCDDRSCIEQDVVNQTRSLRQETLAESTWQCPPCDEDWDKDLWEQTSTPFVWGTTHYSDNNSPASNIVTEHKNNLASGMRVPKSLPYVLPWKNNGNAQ
UniProt Q8NEC7: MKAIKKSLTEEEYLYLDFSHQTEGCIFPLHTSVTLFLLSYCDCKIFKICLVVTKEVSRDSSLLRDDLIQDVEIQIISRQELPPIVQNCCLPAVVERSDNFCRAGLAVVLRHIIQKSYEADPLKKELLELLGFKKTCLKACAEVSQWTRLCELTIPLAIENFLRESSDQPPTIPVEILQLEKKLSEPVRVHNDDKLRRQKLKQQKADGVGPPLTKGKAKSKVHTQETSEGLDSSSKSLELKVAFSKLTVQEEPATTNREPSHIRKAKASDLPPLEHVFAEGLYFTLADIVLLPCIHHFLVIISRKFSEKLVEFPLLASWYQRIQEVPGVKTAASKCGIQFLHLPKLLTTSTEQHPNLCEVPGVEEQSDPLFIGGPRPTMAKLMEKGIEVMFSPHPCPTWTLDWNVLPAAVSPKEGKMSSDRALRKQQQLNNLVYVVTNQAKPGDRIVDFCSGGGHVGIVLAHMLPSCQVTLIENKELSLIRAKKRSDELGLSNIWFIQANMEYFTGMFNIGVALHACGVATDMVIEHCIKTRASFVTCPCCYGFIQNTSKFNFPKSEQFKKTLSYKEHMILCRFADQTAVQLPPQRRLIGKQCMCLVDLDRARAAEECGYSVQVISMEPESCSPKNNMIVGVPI
UniProt P00390: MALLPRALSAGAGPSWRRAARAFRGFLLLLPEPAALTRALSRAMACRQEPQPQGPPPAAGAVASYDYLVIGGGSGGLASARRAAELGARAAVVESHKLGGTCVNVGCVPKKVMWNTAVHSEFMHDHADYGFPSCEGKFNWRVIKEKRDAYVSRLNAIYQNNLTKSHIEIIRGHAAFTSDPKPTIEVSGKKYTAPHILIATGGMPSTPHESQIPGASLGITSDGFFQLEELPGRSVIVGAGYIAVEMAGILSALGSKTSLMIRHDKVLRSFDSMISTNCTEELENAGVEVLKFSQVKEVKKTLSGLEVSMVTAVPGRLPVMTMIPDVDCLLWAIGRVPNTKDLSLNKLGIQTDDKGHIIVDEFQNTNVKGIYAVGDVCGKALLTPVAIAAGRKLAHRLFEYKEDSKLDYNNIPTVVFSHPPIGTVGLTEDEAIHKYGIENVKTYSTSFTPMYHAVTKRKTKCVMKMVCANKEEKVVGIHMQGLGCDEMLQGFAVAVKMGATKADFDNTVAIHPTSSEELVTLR
UniProt Q6PII5: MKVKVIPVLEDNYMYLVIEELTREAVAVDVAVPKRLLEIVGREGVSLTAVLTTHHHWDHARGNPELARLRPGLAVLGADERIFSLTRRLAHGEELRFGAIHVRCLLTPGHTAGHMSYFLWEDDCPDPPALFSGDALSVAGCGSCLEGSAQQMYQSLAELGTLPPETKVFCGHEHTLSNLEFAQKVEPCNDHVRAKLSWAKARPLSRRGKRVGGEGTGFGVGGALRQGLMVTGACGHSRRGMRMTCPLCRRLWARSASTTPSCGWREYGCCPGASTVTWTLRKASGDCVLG
UniProt O75367, whole entry, looked up: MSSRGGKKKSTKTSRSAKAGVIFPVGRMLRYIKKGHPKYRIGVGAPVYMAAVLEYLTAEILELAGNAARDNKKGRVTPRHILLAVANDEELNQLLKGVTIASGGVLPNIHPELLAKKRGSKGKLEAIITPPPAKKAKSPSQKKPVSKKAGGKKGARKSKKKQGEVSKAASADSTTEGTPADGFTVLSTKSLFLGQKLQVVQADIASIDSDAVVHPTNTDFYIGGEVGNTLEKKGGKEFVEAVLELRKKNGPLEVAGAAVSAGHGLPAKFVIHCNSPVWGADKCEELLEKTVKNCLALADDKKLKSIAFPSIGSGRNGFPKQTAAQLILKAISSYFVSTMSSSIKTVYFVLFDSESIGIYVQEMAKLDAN
UniProt Q9UHL9: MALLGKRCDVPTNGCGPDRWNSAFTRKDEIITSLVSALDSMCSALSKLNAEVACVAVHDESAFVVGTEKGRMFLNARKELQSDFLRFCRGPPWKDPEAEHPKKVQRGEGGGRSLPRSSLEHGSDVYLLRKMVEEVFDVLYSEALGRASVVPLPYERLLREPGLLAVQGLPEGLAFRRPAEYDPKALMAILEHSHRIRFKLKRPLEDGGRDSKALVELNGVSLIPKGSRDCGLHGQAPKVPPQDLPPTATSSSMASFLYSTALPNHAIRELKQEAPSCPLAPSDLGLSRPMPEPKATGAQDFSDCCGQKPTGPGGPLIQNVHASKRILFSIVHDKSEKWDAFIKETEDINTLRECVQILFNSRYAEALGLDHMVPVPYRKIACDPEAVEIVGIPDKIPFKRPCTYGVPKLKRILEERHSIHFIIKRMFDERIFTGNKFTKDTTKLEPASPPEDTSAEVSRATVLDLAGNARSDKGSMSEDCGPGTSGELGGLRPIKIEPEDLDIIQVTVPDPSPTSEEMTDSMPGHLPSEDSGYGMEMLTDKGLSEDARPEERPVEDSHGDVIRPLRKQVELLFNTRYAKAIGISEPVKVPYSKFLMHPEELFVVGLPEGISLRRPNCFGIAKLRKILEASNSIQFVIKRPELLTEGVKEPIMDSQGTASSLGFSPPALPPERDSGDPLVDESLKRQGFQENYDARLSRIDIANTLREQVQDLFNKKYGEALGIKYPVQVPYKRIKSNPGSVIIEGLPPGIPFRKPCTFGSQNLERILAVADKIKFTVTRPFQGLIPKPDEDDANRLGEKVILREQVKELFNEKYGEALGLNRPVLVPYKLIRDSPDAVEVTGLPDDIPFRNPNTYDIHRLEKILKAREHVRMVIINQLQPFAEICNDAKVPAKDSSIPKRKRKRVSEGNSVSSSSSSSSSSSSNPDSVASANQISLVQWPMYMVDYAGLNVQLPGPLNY
UniProt Q9H116: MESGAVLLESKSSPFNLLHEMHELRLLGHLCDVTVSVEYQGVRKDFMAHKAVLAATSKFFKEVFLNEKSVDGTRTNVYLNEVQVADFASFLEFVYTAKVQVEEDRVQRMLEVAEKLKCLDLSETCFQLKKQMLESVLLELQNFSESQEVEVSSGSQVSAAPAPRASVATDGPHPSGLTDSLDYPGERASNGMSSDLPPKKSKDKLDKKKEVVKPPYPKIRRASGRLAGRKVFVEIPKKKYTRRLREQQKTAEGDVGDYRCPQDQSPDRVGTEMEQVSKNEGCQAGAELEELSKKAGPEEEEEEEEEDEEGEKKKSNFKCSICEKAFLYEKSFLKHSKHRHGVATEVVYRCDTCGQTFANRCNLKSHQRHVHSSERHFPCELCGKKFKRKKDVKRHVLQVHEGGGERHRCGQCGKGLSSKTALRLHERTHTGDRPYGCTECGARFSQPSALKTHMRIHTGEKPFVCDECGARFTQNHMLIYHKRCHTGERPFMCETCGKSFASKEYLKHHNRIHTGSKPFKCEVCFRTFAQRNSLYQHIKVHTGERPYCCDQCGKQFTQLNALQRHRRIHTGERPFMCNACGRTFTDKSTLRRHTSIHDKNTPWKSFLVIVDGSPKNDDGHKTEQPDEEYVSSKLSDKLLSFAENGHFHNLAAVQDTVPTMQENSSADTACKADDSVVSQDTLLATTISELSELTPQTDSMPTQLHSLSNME
UniProt Q9BQ67, whole entry, looked up: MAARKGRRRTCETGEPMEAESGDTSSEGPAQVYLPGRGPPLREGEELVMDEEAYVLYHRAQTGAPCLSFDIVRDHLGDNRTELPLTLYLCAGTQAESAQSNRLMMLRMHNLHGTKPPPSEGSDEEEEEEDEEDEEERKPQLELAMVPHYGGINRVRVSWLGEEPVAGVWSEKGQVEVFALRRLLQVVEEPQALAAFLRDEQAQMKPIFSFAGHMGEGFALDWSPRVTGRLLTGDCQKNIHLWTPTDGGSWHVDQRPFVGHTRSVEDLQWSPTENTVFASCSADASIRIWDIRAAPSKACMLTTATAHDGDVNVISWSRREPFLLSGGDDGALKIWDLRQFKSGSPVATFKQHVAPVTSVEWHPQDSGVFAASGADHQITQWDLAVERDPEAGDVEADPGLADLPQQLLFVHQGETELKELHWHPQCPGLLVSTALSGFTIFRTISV
UniProt Q969Y2: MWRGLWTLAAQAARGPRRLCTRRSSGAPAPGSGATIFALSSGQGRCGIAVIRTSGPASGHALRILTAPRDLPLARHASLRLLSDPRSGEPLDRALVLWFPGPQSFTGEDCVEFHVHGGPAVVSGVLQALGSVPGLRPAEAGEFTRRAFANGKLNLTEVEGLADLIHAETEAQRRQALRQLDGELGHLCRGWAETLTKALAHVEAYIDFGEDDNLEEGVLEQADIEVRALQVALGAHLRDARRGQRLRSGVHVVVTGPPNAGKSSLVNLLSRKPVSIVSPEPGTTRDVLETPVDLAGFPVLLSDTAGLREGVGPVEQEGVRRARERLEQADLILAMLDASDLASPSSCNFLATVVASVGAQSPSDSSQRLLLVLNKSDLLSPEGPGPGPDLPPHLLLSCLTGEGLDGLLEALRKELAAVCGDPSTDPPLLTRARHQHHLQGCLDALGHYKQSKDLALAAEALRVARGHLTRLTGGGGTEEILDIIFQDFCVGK
UniProt P28799: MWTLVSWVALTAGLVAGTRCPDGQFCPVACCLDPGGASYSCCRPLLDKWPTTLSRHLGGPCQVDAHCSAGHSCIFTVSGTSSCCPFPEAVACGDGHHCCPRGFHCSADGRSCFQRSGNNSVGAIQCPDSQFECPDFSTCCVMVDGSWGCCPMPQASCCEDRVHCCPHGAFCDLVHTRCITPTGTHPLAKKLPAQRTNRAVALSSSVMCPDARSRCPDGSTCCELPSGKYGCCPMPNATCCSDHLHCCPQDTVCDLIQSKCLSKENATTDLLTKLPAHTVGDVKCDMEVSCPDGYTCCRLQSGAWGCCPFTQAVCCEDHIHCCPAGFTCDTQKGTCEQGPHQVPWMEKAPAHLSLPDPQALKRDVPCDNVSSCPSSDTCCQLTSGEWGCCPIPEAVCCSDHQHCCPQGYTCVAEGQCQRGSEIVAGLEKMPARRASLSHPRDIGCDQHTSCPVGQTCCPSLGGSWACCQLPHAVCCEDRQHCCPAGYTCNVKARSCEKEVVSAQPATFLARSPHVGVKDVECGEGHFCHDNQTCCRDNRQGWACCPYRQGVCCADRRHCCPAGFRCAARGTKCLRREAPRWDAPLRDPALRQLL
UniProt P78347: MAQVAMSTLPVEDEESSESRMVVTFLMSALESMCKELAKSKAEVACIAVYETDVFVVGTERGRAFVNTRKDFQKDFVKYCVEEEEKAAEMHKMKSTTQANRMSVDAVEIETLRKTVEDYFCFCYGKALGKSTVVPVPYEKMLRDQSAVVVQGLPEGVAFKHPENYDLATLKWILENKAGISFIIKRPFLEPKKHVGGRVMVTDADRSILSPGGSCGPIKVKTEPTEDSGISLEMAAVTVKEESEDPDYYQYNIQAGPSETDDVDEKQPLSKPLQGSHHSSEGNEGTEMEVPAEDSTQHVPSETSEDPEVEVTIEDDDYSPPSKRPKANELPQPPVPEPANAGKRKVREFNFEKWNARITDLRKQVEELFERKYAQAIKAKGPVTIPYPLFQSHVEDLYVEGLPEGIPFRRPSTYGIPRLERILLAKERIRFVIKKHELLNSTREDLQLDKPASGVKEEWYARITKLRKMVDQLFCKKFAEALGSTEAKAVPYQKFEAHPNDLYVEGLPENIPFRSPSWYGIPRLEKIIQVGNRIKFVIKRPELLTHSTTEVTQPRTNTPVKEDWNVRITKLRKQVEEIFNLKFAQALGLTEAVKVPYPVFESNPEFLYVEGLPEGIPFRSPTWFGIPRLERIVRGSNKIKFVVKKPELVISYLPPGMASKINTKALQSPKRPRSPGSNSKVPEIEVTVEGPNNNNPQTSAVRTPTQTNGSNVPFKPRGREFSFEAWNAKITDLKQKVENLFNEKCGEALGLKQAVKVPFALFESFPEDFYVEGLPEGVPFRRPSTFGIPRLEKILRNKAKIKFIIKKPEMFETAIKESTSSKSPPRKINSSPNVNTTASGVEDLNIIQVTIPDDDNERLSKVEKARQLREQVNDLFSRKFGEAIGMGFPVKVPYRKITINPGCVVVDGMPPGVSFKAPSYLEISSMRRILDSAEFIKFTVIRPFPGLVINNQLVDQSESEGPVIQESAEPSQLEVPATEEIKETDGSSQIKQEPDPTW
UniProt Q13889: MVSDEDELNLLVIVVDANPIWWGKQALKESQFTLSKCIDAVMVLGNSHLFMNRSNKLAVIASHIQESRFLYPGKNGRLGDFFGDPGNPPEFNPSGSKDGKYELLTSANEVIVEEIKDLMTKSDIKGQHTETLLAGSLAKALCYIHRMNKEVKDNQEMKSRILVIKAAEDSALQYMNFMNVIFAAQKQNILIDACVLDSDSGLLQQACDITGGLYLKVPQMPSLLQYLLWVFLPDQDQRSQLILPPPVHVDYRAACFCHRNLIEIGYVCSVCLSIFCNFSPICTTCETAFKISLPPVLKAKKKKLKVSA

Compound: Cc1cc(ccc1-c1ccccc1)C(=O)N1CCCN(CC1)C(=O)CCl [compound 10]
Assay: probe-labelled cysteine peptide fold change vs DMSO (competition) (log2 fold change); higher = less target engagement (more negative = stronger competition)
Conditions: THP-1, incubation time: 4 h
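Note: competitive profiling in live THP-1 cells: cysteine peptides tagged with an iodoacetamide desthiobiotin (IA-DTB) probe, intensity after compound treatment relative to DMSO-treated cells.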

Target: HADHB_P55084_435_FNNWGGSLSLGHPFGATGCR (UniProt P55084)
- probe-labelled cysteine peptide fold change (10 µM): 0.111
- probe-labelled cysteine peptide fold change (50 µM): -0.101

Target: GTSF1_Q8WW33_76_SCIEQDVVNQTR (UniProt Q8WW33)
- probe-labelled cysteine peptide fold change (10 µM): 0.111
- probe-labelled cysteine peptide fold change (50 µM): -0.155

Target: GTPBP1_O00178_360_MCPIFQISNVTGENLDLLK (UniProt O00178)
- probe-labelled cysteine peptide fold change (10 µM): 0.165
- probe-labelled cysteine peptide fold change (50 µM): 0.0838

Target: GSTCD_Q8NEC7_592_QCMCLVDLDR (UniProt Q8NEC7)
- probe-labelled cysteine peptide fold change (10 µM): -0.0108
- probe-labelled cysteine peptide fold change (50 µM): -0.398

Target: H6PD_O95479_623_CVPLSDPESNFQGLQAHLLQHVR (UniProt O95479)
- probe-labelled cysteine peptide fold change (10 µM): 0.0238
- probe-labelled cysteine peptide fold change (50 µM): 0.0929

Target: GSR_P00390_102_LGGTCVNVGCVPK (UniProt P00390)
- probe-labelled cysteine peptide fold change (10 µM): -0.183
- probe-labelled cysteine peptide fold change (50 µM): -0.149

Target: GSDMD_P57764_268_CLHNFLTDGVPAEGAFTEDFQGLRAEVETISK (UniProt P57764)
- probe-labelled cysteine peptide fold change (10 µM): 0.695
- probe-labelled cysteine peptide fold change (50 µM): -0.887

Target: HAGHL_Q6PII5-2_248_AVPADVLEALCK (UniProt Q6PII5)
- probe-labelled cysteine peptide fold change (10 µM): -0.407
- probe-labelled cysteine peptide fold change (50 µM): -0.341

Target: HAGHL_Q6PII5_188_VEPCNDHVR (UniProt Q6PII5)
- probe-labelled cysteine peptide fold change (10 µM): 0.0181
- probe-labelled cysteine peptide fold change (50 µM): 0.0303

Target: H2AFY_O75367_286_FVIHCNSPVWGADKCEELLEK (UniProt O75367)
- probe-labelled cysteine peptide fold change (10 µM): -0.209
- probe-labelled cysteine peptide fold change (50 µM): -0.328

Target: GTF2IRD1_Q9UHL9_277_QEAPSCPLAPSDLGLSR (UniProt Q9UHL9)
- probe-labelled cysteine peptide fold change (10 µM): -0.108
- probe-labelled cysteine peptide fold change (50 µM): -0.849

Target: GSTM3_P21266_178_CLDEFPNLK (UniProt P21266)
- probe-labelled cysteine peptide fold change (10 µM): -0.182
- probe-labelled cysteine peptide fold change (50 µM): -0.0246

Target: GZF1_Q9H116_282_NEGCQAGAELEELSK (UniProt Q9H116)
- probe-labelled cysteine peptide fold change (10 µM): -0.0689
- probe-labelled cysteine peptide fold change (50 µM): 0.0268

Target: GRWD1_Q9BQ67_66_AQTGAPCLSFDIVR (UniProt Q9BQ67)
- probe-labelled cysteine peptide fold change (10 µM): 0.302
- probe-labelled cysteine peptide fold change (50 µM): -0.137

Target: GRK4_P32298_204_GGFGEVCACQVR (UniProt P32298)
- probe-labelled cysteine peptide fold change (10 µM): 0.193
- probe-labelled cysteine peptide fold change (50 µM): 0.00267

Target: GTPBP3_Q969Y2_188_QLDGELGHLCR (UniProt Q969Y2)
- probe-labelled cysteine peptide fold change (10 µM): -0.0966
- probe-labelled cysteine peptide fold change (50 µM): -0.00935

Target: GRN_P28799_481_QHCCPAGYTCNVK (UniProt P28799)
- probe-labelled cysteine peptide fold change (10 µM): -0.217
- probe-labelled cysteine peptide fold change (50 µM): -0.32

Target: HARS2_P49590_84_ILDLVISCFK (UniProt P49590)
- probe-labelled cysteine peptide fold change (10 µM): -0.204
- probe-labelled cysteine peptide fold change (50 µM): -0.834

Target: GTF2I_P78347_745_CGEALGLK (UniProt P78347)
- probe-labelled cysteine peptide fold change (10 µM): 0.0905
- probe-labelled cysteine peptide fold change (50 µM): -0.092

Target: HAUS6_Q7Z4H7_743_ILDHLEVSCNKPSTNK (UniProt Q7Z4H7)
- probe-labelled cysteine peptide fold change (10 µM): -0.0162
- probe-labelled cysteine peptide fold change (50 µM): -0.362

Target: GSDMD_P57764_38_RVVQELDHGGEFIPVTSLQSSTGFQPYCLVVR (UniProt P57764)
- probe-labelled cysteine peptide fold change (10 µM): 0.275
- probe-labelled cysteine peptide fold change (50 µM): -0.375

Target: GSS_P48637_294_CPDIATQLAGTK (UniProt P48637)
- probe-labelled cysteine peptide fold change (10 µM): -0.127
- probe-labelled cysteine peptide fold change (50 µM): 0.123

Target: GRN_P28799_171_VHCCPHGAFCDLVHTR (UniProt P28799)
- probe-labelled cysteine peptide fold change (10 µM): 0.119
- probe-labelled cysteine peptide fold change (50 µM): -0.0901

Target: GTF2H3_Q13889_142_ALCYIHR (UniProt Q13889)
- probe-labelled cysteine peptide fold change (10 µM): 0.00116
- probe-labelled cysteine peptide fold change (50 µM): 0.0865

Target: GSDMD_P57764_191_FSLPGATCLQGEGQGHLSQKK (UniProt P57764)
- probe-labelled cysteine peptide fold change (10 µM): -0.00104
- probe-labelled cysteine peptide fold change (50 µM): -0.614

Target: GRK2_P25098_120_ELLACSHPFSK (UniProt P25098)
- probe-labelled cysteine peptide fold change (10 µM): -0.194
- probe-labelled cysteine peptide fold change (50 µM): -0.509

Target: GRWD1_Q9BQ67_299_ACMLTTATAHDGDVNVISWSR (UniProt Q9BQ67)
- probe-labelled cysteine peptide fold change (10 µM): -0.0232
- probe-labelled cysteine peptide fold change (50 µM): 0.0139
